The target in assay [1] is T1, Flag-tagged ADCY9 (pCMV3-ADCY9-FLAG, Sino Biological #HG19950-CF) (UniProt O60503).
T1 sequence (looked up): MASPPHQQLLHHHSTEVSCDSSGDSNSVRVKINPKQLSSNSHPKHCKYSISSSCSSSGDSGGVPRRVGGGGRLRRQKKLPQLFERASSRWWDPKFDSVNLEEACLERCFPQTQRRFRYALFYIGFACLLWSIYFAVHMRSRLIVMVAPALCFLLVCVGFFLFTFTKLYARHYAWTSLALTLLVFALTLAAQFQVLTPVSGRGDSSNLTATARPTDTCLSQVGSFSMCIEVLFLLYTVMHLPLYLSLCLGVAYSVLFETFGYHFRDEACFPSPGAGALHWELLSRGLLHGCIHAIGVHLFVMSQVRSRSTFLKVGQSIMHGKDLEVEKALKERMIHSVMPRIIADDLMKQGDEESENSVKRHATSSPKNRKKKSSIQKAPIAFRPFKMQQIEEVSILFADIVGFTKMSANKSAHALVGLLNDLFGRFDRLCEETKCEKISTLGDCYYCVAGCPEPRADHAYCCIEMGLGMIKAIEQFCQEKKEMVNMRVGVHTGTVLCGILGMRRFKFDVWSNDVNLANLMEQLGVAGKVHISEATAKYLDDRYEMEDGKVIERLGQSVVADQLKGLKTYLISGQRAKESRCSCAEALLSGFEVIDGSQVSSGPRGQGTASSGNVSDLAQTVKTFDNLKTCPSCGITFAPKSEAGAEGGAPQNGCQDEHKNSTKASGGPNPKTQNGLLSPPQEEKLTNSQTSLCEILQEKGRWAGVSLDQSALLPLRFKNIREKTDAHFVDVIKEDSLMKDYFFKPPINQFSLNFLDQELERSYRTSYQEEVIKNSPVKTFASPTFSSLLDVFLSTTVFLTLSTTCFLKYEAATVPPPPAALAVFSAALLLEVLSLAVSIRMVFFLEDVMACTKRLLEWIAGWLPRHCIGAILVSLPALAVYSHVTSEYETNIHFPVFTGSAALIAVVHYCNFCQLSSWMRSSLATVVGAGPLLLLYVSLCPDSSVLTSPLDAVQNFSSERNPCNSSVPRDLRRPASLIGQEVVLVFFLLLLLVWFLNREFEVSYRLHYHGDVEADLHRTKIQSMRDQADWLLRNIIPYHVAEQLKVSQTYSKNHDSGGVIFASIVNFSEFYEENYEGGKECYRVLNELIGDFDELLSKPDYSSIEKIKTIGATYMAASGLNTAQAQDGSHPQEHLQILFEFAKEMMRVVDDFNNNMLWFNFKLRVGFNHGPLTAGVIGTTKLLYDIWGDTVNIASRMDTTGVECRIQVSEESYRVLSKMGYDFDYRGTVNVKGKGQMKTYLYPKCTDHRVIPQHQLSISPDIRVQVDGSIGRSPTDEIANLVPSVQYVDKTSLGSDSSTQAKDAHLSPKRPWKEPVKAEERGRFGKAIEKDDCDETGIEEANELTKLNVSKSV
The assay is described as follows: co-IP from co-transfected COS-1 cells.

Amino acid sequences for entries named in this document (tags omitted). A change or cut given only in a name is not applied to a line headed by its entry.
UniProt Q8NE79: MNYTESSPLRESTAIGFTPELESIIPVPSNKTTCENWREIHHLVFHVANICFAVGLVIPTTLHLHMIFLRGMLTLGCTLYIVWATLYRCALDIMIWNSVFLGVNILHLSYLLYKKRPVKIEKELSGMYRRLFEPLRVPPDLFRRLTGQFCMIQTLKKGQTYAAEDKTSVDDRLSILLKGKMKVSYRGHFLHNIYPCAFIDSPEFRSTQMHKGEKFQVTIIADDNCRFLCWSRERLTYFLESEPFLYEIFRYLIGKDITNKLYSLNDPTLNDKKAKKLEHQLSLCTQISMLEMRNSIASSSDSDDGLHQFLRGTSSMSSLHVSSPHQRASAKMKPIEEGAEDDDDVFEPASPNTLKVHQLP

The target of assay [2] is T1, Flag-tagged ADCY9 (pCMV3-ADCY9-FLAG, Sino Biological #HG19950-CF). The experiment in a line: co-IP with Flag antibody, Cos-1 lysates.

These are yes or no findings as the source states them, for the method shown. Binding seen in cells or lysates may run through a third protein. Some binding calls cover weakened binding; strength is not graded here. Tags and fused reporters may be left off the sequences shown.

For “human BVES fused with 3xHA tag (from UniProt Q8NE79 1-360)”, the binding entry in assay [1] and in assay [2] was “binds” in each case.
